Data as given in PubChem BioAssay AID1224826 (NIAID, 2016).
The whole screen tested about 17,000 reagents; this is an unselected part. Of all reagents, about 1,110 (6.6%) were called active. 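Active means lowered or raised reporter signal; replicate intensities are raw and not normalised per plate.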 Reagents against one gene are numbered here. Not all columns of the deposit are shown.

Screen: 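Genes that change LPS-induced Tnf promoter activity in mouse macrophages when knocked down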 (primary screen)
Cells: RAW264.7 G9 macrophages from mouse bearing reporters for p65 (GFP) and the Tnf promoter (mCherry)
Knock-down reagent: siRNA pool against mouse genes, 100 nM
Duration: 16 h of LPS stimulation, after 2 days of siRNA transfection
Conditions: bacterial lipopolysaccharide (Salmonella minnesota R595), 10 ng/ml
Measured: 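Imaged Tnf reporter mCherry in nuclei, minus background, normalised per plate to the median and expressed as robust z-scores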
Reading the numbers: Tnf reporter robust z-score: higher = stronger Tnf promoter reporter signal after LPS
Call rule: 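a well counts as active at a score of -1.3 or below (Tlr4 knock-down control median) or above 3 (raised signal); controls and wells holding fewer than 50 cells are excluded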
Calls: active = Tnf reporter clearly lowered or raised; inactive = no clear change in Tnf reporter

no.	gene symbol	reagent	Tnf reporter robust z-score	fewer than 50 cells in well	Call
1	Adora2b	1	-0.15	enough cells in well	inactive
2	Dcaf8l	1	1.83	enough cells in well	inactive
3	Melk	1	-0.64	enough cells in well	inactive
4	Fbln1	1	0.16	enough cells in well	inactive
5	Pttg1ip	1	0.01	enough cells in well	inactive
6	Or14j6	1	5.18	enough cells in well	active
7	Atp1a2	1	0.09	enough cells in well	inactive
8	Kif9	1	-0.3	enough cells in well	inactive
9	Xpr1	1	-0.27	enough cells in well	inactive
10	Hcst	1	-1.37	enough cells in well	active
11	Arhgef11	1	-0.09	enough cells in well	inactive
12	Pak6	1	-0.61	enough cells in well	inactive
13	Galnt13	1	-1.53	enough cells in well	active
14	Or51ac3	1	4.01	enough cells in well	active
15	Dqx1	1	-0.18	enough cells in well	inactive
16	Ndufb9	1	-0.16	enough cells in well	inactive
17	Il11	1	-0.27	enough cells in well	inactive
18	Arl8b	1	0.15	enough cells in well	inactive
19	Efr3a	1	-1.3	enough cells in well	active
20	Efr3a	2	1.82	enough cells in well	inactive
21	Dmbx1	1		fewer than 50 cells per well; well left out of calls	inactive
22	Irs3	1	1.04	enough cells in well	inactive
23	Cers5	1	-0.53	enough cells in well	inactive
24	Gpnmb	1	-1.37	enough cells in well	active
25	Zfp286	1	-1.22	enough cells in well	inactive
26	Slc36a3	1		fewer than 50 cells per well; well left out of calls	inactive
27	Mcl1	1	-1.3	enough cells in well	active
28	Or6z1	1	0.7	enough cells in well	inactive
29	Aldh3b1	1	-0.59	enough cells in well	inactive
30	Npm2	1		fewer than 50 cells per well; well left out of calls	inactive
31	Cyp2e1	1	-0.11	enough cells in well	inactive
32	Zfp729a	1	0.77	enough cells in well	inactive
33	Gata3	1	-1.18	enough cells in well	inactive
34	Ceacam1	1	0.57	enough cells in well	inactive
35	Stoml3	1	2.74	enough cells in well	inactive
36	Gch1	1	0.3	enough cells in well	inactive
37	Slurp1	1		fewer than 50 cells per well; well left out of calls	inactive
38	Or2a56	1		fewer than 50 cells per well; well left out of calls	inactive
39	Ppa2	1	-0.65	enough cells in well	inactive
40	Gpr152	1	0.18	enough cells in well	inactive
41	Has3	1	2.66	enough cells in well	inactive
42	Cep131	1	0.36	enough cells in well	inactive
43	Hspa1l	1	0.64	enough cells in well	inactive
44	Itgb1bp1	1	0.72	enough cells in well	inactive
45	Gdap1l1	1	-0.38	enough cells in well	inactive
46	Zfp62	1	0.62	enough cells in well	inactive
47	Psg17	1	-1.16	enough cells in well	inactive
48	Dctd	1	-1.33	enough cells in well	active
49	Or7e173	1		fewer than 50 cells per well; well left out of calls	inactive
50	Aipl1	1	-0.18	enough cells in well	inactive
51	Abcc3	1	-0.97	enough cells in well	inactive
52	Tchp	1	-0.23	enough cells in well	inactive
53	Hira	1	-0.62	enough cells in well	inactive
54	Fcgrt	1	0.7	enough cells in well	inactive
55	Mdm4	1	-0.74	enough cells in well	inactive
56	Kcnk7	1	3.65	enough cells in well	active
57	Or10ak11	1	1.21	enough cells in well	inactive
58	Atp4b	1	-0.16	enough cells in well	inactive
59	Tbl1xr1	1	-1.03	enough cells in well	inactive
60	Fut7	1	0.75	enough cells in well	inactive
61	Or10d4c	1		fewer than 50 cells per well; well left out of calls	inactive
62	Csrp2	1	0.22	enough cells in well	inactive
63	Or2w6	1	-0.28	enough cells in well	inactive
64	Mrgprb5	1	0.54	enough cells in well	inactive
65	Asb9	1	1.04	enough cells in well	inactive
66	Kank2	1	-0.47	enough cells in well	inactive
67	Pex1	1	0.19	enough cells in well	inactive
68	N4bp2l1	1	-0.75	enough cells in well	inactive
69	Spon1	1	3.48	enough cells in well	active
70	Adcy4	1	-0.11	enough cells in well	inactive
71	Ccnc	1	-0.6	enough cells in well	inactive
72	Gckr	1	0.12	enough cells in well	inactive
73	Grpr	1	-1.11	enough cells in well	inactive
74	Or2l5	1	1.72	enough cells in well	inactive
75	Trmt61a	1	0.03	enough cells in well	inactive

Quoted from the listing, 3 entries:
no.	gene symbol	reagent	Tnf reporter robust z-score	fewer than 50 cells in well	Call
46	Zfp62	1	0.62	enough cells in well	inactive
47	Psg17	1	-1.16	enough cells in well	inactive
48	Dctd	1	-1.33	enough cells in well	active
